In the supplement of paper PMC10849652:
The list shows a part of the results. Residues, ends and D or L forms follow the SMILES beside them. *: point of attachment. Cbz = O=C(OCc1ccccc1)*

Protein sequences, listed by entry. Tags and fused reporters are not part of them. Lines headed by an entry give the natural chain unless they say otherwise; changes in a name come on top.
UniProt Q9NXC5: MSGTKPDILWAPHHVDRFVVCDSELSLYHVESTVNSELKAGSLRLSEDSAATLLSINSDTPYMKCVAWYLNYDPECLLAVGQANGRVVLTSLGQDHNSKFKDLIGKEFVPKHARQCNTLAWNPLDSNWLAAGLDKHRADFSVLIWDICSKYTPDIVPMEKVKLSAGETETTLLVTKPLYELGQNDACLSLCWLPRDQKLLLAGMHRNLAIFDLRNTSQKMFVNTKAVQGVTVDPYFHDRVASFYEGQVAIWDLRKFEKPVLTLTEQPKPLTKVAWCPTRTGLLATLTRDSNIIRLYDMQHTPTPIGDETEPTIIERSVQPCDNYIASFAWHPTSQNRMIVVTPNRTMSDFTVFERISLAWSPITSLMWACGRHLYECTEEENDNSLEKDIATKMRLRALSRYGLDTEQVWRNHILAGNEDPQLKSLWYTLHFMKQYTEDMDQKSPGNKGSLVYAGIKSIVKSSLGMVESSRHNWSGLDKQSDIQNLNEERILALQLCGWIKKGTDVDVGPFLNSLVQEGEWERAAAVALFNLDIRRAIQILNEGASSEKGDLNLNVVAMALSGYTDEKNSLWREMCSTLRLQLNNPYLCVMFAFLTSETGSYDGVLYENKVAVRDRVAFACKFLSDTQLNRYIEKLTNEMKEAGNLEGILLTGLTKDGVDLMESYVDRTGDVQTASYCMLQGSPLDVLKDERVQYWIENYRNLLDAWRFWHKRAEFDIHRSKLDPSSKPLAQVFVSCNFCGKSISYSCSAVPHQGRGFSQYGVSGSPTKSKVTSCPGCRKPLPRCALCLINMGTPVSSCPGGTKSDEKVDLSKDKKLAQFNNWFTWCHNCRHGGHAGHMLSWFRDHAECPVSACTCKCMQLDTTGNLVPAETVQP
UniProt Q9BV20: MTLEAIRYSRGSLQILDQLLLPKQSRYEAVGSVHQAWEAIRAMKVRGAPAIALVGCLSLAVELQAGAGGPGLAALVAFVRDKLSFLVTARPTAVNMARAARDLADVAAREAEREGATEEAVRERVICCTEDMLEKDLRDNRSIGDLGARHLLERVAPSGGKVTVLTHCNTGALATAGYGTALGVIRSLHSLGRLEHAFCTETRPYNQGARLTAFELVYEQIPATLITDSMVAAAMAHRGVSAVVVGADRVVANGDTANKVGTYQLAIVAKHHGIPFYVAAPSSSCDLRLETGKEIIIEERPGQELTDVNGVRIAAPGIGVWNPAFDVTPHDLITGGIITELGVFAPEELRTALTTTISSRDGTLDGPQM
UniProt Q13724: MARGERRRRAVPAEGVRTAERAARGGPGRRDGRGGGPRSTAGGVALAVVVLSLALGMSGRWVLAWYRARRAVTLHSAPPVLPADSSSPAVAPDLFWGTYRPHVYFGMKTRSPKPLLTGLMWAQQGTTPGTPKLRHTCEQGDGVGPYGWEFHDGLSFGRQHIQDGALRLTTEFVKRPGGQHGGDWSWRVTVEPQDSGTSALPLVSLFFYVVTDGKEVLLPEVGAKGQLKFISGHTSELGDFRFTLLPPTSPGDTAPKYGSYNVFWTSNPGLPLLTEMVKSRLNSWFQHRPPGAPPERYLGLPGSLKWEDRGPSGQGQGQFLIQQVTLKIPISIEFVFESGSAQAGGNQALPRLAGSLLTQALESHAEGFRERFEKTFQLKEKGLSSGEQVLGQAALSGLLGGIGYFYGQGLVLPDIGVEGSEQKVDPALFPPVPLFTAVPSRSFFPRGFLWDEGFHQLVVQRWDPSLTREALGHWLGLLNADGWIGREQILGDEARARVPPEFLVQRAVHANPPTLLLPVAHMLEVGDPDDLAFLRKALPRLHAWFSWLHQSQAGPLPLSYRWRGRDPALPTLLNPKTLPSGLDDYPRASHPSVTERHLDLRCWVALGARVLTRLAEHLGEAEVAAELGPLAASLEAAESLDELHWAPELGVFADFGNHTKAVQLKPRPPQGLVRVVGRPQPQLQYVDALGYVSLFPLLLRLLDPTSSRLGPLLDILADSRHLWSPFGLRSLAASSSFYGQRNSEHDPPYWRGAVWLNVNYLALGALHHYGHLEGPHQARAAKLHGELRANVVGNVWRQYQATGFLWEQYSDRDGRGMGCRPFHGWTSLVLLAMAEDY
UniProt Q9UL63, whole entry, looked up: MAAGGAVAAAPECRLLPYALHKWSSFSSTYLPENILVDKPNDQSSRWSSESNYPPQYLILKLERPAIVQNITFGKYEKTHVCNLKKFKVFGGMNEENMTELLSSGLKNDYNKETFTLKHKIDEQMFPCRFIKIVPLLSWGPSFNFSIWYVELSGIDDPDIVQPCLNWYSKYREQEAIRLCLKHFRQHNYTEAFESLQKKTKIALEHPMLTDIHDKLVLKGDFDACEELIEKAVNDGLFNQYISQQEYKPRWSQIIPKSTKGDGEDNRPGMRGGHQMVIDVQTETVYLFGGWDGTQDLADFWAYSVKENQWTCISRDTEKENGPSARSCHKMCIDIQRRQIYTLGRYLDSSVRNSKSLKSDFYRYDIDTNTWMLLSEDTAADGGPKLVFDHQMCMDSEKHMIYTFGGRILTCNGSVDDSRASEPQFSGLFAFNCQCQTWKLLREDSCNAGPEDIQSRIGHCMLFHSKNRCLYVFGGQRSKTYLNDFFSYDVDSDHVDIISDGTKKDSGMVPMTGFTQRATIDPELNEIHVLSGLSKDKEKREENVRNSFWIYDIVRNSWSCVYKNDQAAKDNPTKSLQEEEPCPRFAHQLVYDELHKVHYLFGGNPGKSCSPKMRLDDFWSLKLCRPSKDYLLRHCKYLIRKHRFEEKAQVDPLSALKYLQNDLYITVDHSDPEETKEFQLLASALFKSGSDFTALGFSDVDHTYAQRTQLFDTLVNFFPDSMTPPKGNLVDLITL

What was measured:
Assay in all cases: log2 fold change, soluble protein after heating vs DMSO (PISA); higher = thermal stabilisation; K562 cells, 10 uM, 30 min; active = over 0.2 and 3.5 SD of the protein, either way, in both replicates (recomputed)
[1] = compound: C#Cc1cccc(Nc2ncnc3cc(OCCOC)c(OCCOC)cc23)c1 [erlotinib]
Summary of the method: (§1)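 K562 cells at 2×10^6 cells/mL were treated with 10 μM compound for 30 min. Aliquots were heated for 3 min across 48°C-58°C, pooled, and extracted in PBS with 0.5% NP-40 at 4°C; soluble protein was the supernatant after 21,000xg for 90 min. Soluble protein was quantified by TMTpro 16plex LC-MS/MS with channel sums equalised, and reported as log2 fold change in thermal stability against DMSO controls, with values from duplicates.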

[2] = compound: C/C(=N\NC(=O)C1=CC(=CC=C1)S(=O)(=O)N2CCOCC2)/C3=C(C=CC(=C3)Cl)O
Summary of the method: as §1

[3] = compound: C1=CC(=C(C=C1Cl)C2=NC3=NC=CN=C3C(=N2)NC4=CC=NC=C4)F
Summary of the method: as §1

[4] = compound: C1=CC(=CC=C1C2=NC3=C(N2)C=C(C=C3)C(=O)N)OC4=CC=C(C=C4)Cl
Summary of the method: as §1

[5] = compound: C1=CC2=C(C=CC(=C2)/C=C\3/C(=O)NC(=NCC4=CC=CS4)S3)N=C1
Summary of the method: as §1

[6] = compound: C1=CC2=NC=CN=C2C=C1/C=C/3\C(=O)NC(=O)S3
Summary of the method: as §1

[7] = compound: C1=CC=C(C=C1)C2=NC(=C(N2)C3=CC=NC=C3)C4=CC(=C(C=C4)Cl)O
Summary of the method: as §1

[8] = compound: C1=CC=C2C(=C1)C3=NNC4=CC=CC(=C43)C2=O
Summary of the method: as §1

[9] = compound: C1CCN(C1)C(=O)NC2=CC=CC(=C2)NC3=NC=C(C(=N3)NCCC4=CN=CN4)Br
Summary of the method: as §1

[10] = compound: C1CN(CCC1(CC2=CC=C(C=C2)Cl)N)C3=NC=NC4=C3C=CN4
Summary of the method: as §1

[11] = compound: C1COCCN1CCN2C3=CC=CC=C3N=C2NC(=O)C4=CC(=CC=C4)[N+](=O)[O-] [IRAK-1-4 Inhibitor I]
Summary of the method: as §1

[12] = compound: C=CC(=O)N1CCC[C@@H](n2nc(-c3ccc(Oc4ccccc4)cc3)c3c(N)ncnc32)C1 [ibrutinib]
Summary of the method: as §1

[13] = compound: CC(=O)c1cnc2ccc(-c3cc(Cl)c(O)c(Cl)c3)nc2c1N[C@H]1CC[C@H](CN(C)C)CC1
Summary of the method: as §1

[14] = compound: CC(C)(C)Cn1c(N)nc2ccc(-c3[nH]c(C(C)(C)C)nc3-c3ccc(F)cc3)nc21 [ralimetinib]
Summary of the method: as §1

[15] = compound: CC(C)(O)CC(=O)NCCn1ccc2ncnc(Nc3ccc(Oc4cccc(C(F)(F)F)c4)c(Cl)c3)c21
Summary of the method: as §1

[16] = compound: CC(C)C1=C2N=C(C=C(N2N=C1)NCC3=CC=CC=C3)NCCCCCCN
Summary of the method: as §1

[17] = compound: CC(C)C[C@@H](C=O)NC(=O)[C@H](CC(C)C)NC(=O)[C@H](CC(C)C)NC(=O)OCc1ccccc1
Summary of the method: as §1

[18] = compound: CC(C)N(C[C@H]1O[C@@H](n2cnc3c(N)ncnc32)[C@H](O)[C@@H]1O)[C@H]1C[C@@H](CCc2nc3cc(C(C)(C)C)ccc3[nH]2)C1 [pinometostat]
Summary of the method: as §1

[19] = compound: CC1=C(C(CC(=O)N1)C2=CC=C(C=C2)C(F)(F)F)C(=O)NC3=C(C=C4C(=C3)C=NN4)F
Summary of the method: as §1

[20] = compound: CC1=C(C2=C(C=C1)C(=O)C3=CC=CC=C3N2CCCN)C
Summary of the method: as §1

Measured: log2 fold change

MRPL44 (UniProt Q9H9J2)
inactive: [1] -0.186 | [2] -0.094 | [3] -0.129 | [4] 0.088 | [5] -0.101 | [6] -0.026 | [7] 0.034 | [8] 0.137 | [9] -0.004 | [10] -0.228 | [11] -0.151 | [12] -0.027 | [13] 0.108 | [14] 0.124 | [15] 0.013 | [16] -0.006 | [17] 0.048 | [18] 0.124 | [19] -0.031 | [20] -0.075

MRPL30 isoform 2 (UniProt Q8TCC3)
inactive: [1] -0.083 | [2] -0.15 | [3] -0.221 | [4] 0.015 | [5] -0.112 | [6] -0.088 | [7] 0.133 | [8] 0.115 | [9] -0.01 | [10] -0.191 | [11] -0.08 | [12] 0.023 | [13] 0.068 | [14] 0.114 | [15] 0.075 | [16] -0.026 | [17] 0.132 | [18] 0.151 | [19] -0.047 | [20] -0.157

MRPL54 (UniProt Q6P161)
inactive: [1] -0.053 | [2] -0.089 | [3] -0.183 | [4] 0.095 | [5] -0.1 | [6] 0.032 | [7] -0.033 | [8] 0.032 | [9] 0.077 | [10] 0.079 | [11] 0.04 | [12] 0.053 | [13] 0.052 | [14] 0.038 | [15] 0.081 | [16] -0.025 | [17] 0.211 | [18] 0.078 | [19] 0.05 | [20] -0.278

MIOS (UniProt Q9NXC5)
inactive: [1] -0.023 | [2] -0.01 | [3] -0.056 | [4] 0.02 | [5] -0.029 | [6] 0.013 | [7] -0.037 | [8] -0.052 | [9] 0.019 | [10] -0.038 | [11] -0.096 | [12] 0.007 | [13] -0.016 | [14] 0.056 | [15] 0.022 | [16] 0.066 | [17] 0.057 | [18] 0.01 | [19] 0.008 | [20] 0.031

MRPL4 (UniProt Q9BYD3)
inactive: [1] -0.136 | [2] -0.112 | [3] -0.064 | [4] 0.138 | [5] -0.071 | [6] -0.028 | [7] 0.026 | [8] 0.045 | [9] 0.024 | [10] -0.069 | [11] -0.06 | [12] -0.003 | [13] 0.062 | [14] 0.113 | [15] -0.003 | [16] -0.026 | [17] 0.022 | [18] 0.123 | [19] 0.092 | [20] -0.111

MRPL35 (UniProt Q9NZE8)
inactive: [1] -0.102 | [2] -0.104 | [3] -0.268 | [4] 0.158 | [5] -0.05 | [6] -0.041 | [7] 0.048 | [8] 0.097 | [9] 0.105 | [10] -0.157 | [11] -0.021 | [12] -0.03 | [13] 0.077 | [14] 0.109 | [15] 0 | [16] -0.046 | [17] 0.059 | [18] 0.131 | [19] 0.026 | [20] -0.1

MRPL39 (UniProt Q9NYK5)
inactive: [1] -0.079 | [2] -0.075 | [3] -0.131 | [4] 0.103 | [5] -0.028 | [6] -0.021 | [7] 0.089 | [8] 0.04 | [9] 0.009 | [10] -0.061 | [11] -0.039 | [12] 0.019 | [13] 0.03 | [14] 0.113 | [15] 0.026 | [16] -0.053 | [17] 0.066 | [18] 0.108 | [19] 0.013 | [20] -0.038

MRPL15 (UniProt Q9P015)
inactive: [1] -0.12 | [2] -0.101 | [3] -0.166 | [4] 0.07 | [5] 0.001 | [6] -0.012 | [7] 0.025 | [8] 0.073 | [9] -0.015 | [10] -0.159 | [11] -0.274 | [12] -0.002 | [13] 0.056 | [14] 0.044 | [15] -0.008 | [16] -0.037 | [17] 0.106 | [18] 0.044 | [19] 0.052 | [20] -0.124

MRPL23 (UniProt Q16540)
inactive: [1] -0.078 | [2] -0.075 | [3] -0.116 | [4] 0.056 | [5] -0.041 | [6] -0.028 | [7] 0.041 | [8] 0.147 | [9] 0.042 | [10] -0.191 | [11] -0.111 | [12] -0.008 | [13] 0.078 | [14] 0.059 | [15] 0.028 | [16] 0.058 | [17] 0.151 | [18] 0.126 | [19] 0.018 | [20] -0.046

MRI1 (UniProt Q9BV20)
inactive: [1] 0.038 | [2] 0.034 | [3] 0.082 | [4] -0.002 | [5] 0.028 | [6] -0.003 | [7] 0.013 | [8] -0.033 | [9] -0.014 | [10] 0.032 | [11] 0.047 | [12] 0 | [13] -0.021 | [14] 0.009 | [15] -0.011 | [16] 0.039 | [17] -0.06 | [18] -0.002 | [19] -0.023 | [20] 0.004

MRPL55 isoform 2 (UniProt Q7Z7F7)
inactive: [1] -0.024 | [2] -0.002 | [3] -0.287 | [4] -0.024 | [5] 0 | [6] -0.047 | [7] 0.082 | [8] 0.331 | [9] 0.039 | [10] -0.121 | [11] -0.089 | [12] -0.107 | [13] 0.11 | [14] 0.085 | [15] 0.003 | [16] 0.013 | [17] 0.138 | [18] 0.153 | [19] -0.061 | [20] -0.037

MRPL22 (UniProt Q9NWU5)
inactive: [1] 0.001 | [2] -0.056 | [3] -0.189 | [4] 0.085 | [5] 0.033 | [6] -0.086 | [7] 0.021 | [8] 0.119 | [9] -0.042 | [10] -0.183 | [11] -0.023 | [12] -0.036 | [13] 0.104 | [14] 0.111 | [15] -0.012 | [16] -0.106 | [17] 0.038 | [18] 0.044 | [19] -0.006 | [20] -0.057

MRPL43 isoform 4 (UniProt Q8N983)
inactive: [1] -0.154 | [2] -0.061 | [3] -0.139 | [4] 0.09 | [5] 0.004 | [6] -0.056 | [7] -0.021 | [8] 0.067 | [9] -0.11 | [10] -0.278 | [11] -0.042 | [12] -0.003 | [13] 0.117 | [14] 0.001 | [15] 0.023 | [16] 0.014 | [17] 0.067 | [18] 0.14 | [19] 0.128 | [20] -0.103

MOGS (UniProt Q13724)
inactive: [1] -0.038 | [2] 0.003 | [3] -0.044 | [4] 0.02 | [5] 0.019 | [6] -0.007 | [7] 0.027 | [8] 0.015 | [9] -0.02 | [10] -0.05 | [11] -0.06 | [12] -0.013 | [13] 0.026 | [14] 0.021 | [15] 0.017 | [16] -0.118 | [17] 0.012 | [18] 0.062 | [19] -0.016 | [20] 0.057

MRPL21 (UniProt Q7Z2W9)
inactive: [1] -0.116 | [2] -0.034 | [3] -0.144 | [4] 0.081 | [5] -0.038 | [6] -0.032 | [7] 0.008 | [8] 0.132 | [9] 0.005 | [10] -0.192 | [11] -0.177 | [12] -0.046 | [13] 0.024 | [14] 0.046 | [15] 0.019 | [16] 0.061 | [17] 0.038 | [18] 0.141 | [19] -0.01 | [20] -0.003

MKLN1 (UniProt Q9UL63)
inactive: [1] -0.057 | [2] 0.002 | [3] -0.012 | [4] 0.031 | [5] -0.039 | [6] 0.026 | [7] 0.049 | [8] -0.018 | [9] -0.024 | [10] -0.016 | [11] -0.041 | [12] -0.033 | [13] 0.006 | [14] 0.097 | [15] -0.014 | [16] -0.003 | [17] -0.004 | [18] 0.01 | [19] 0.013 | [20] -0.025
